Results deposited as PubChem BioAssay AID652272 (Drosophila RNAi Screening Center, 2013)
In all, the deposit lists about 21,000 reagents; this is an unselected part of those that have a named target and a result. In the full data, 503 (2.4%) are marked active. 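Raw plate light values, not normalised; calls rest on replicate z-scores that were not deposited; hits include reporter decreases as well as increases.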 A plus sign joins genes that one reagent is predicted to hit. No sequences are given here. The record does not give: the amount of reagent, the time to read-out.

Assay: 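Genome-wide knock-down search for components of Hedgehog signalling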 (primary screen)
System: Drosophila clone 8 (Cl8) cells
Reagents: long dsRNA against Drosophila genes
Measurement: 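Firefly light from a Hedgehog-responsive ptc promoter reporter and Renilla reference light, both read on a plate reader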
Reading the numbers: firefly Hh reporter signal: higher = more ptc reporter light; Renilla reference signal: higher = more Renilla control light
Active means: 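Called a hit if the two-replicate mean z-score lies below -2 or above +3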
Meaning of the calls: active = hit: reporter lowered or raised; inactive = not a hit

| gene | PubChem SID | firefly Hh reporter signal, replicate 1 | firefly Hh reporter signal, replicate 2 | firefly Hh reporter signal, replicate 3 | Renilla reference signal, replicate 1 | Renilla reference signal, replicate 2 | Call |
| --- | --- | --- | --- | --- | --- | --- | --- |
| Faf2 | SID104183117 | 63206 | 47830 | – | 2832 | 1625 | inactive |
| Acbp1 | SID104182885 | 97637 | 59317 | – | 2500 | 5040 | inactive |
| CG34166 | SID104182274 | 6.83e5 | 1.15e5 | – | 4135 | 4135 | inactive |
| Polr3I | SID104199714 | 76016 | 81568 | – | 1948 | 2320 | inactive |
| Snm1 | SID104191922 | 1.70e5 | 92880 | – | 6422 | 4140 | inactive |
| eEF1alpha2 | SID104193871 | 4.22e5 | 1.98e5 | – | 22672 | 4172 | inactive |
| eEF1alpha2 | SID104196450 | 58020 | 94041 | – | 2435 | 4729 | inactive |
| CG33290 | SID104191285 | 2.34e5 | – | – | 4981 | – | inactive |
| Aldh7A1 | SID104190875 | 1.08e5 | 59981 | – | 4316 | 2496 | inactive |
| nSyb | SID104188519 | 1.40e5 | 93770 | – | 6153 | 3600 | inactive |
| Pex12 | SID104180414 | 72904 | 54512 | – | 2112 | 1712 | inactive |
| Golgin84 | SID104195061 | 5.01e5 | 95925 | – | 23610 | 3123 | inactive |
| CG34355 | SID104193431 | 49139 | 8.01e5 | 3.20e5 | 12390 | 5776 | inactive |
| CG34355 | SID104194312 | 5.18e5 | 1.01e5 | – | 26971 | 3297 | inactive |
| CG34355 | SID104194460 | 6.21e5 | 1.34e5 | – | 32448 | 4048 | inactive |
| Gdap2 | SID104186581 | 1.02e5 | 55168 | – | 2285 | 4861 | inactive |
| Gdap2 | SID104186582 | 91098 | 48837 | – | 1792 | 3707 | inactive |
| kel | SID104183346 | 69332 | 70538 | – | 2057 | 5680 | inactive |
| CG40485 | SID104200416 | 62376 | 1.75e5 | – | 2070 | 7962 | inactive |
| CG30159 | SID104184773 | 1.10e5 | 74897 | – | 4856 | 3168 | inactive |
| Pde6 | SID104196193 | 1.08e5 | 1.05e5 | – | 4150 | 4049 | inactive |
| Pde6 | SID104196194 | 76129 | 69812 | – | 2507 | 1943 | inactive |
| Pde6 | SID104196195 | 59008 | 96234 | – | 2151 | 2309 | inactive |
| eIF3i | SID104183256 | 55891 | 25648 | – | 2832 | 1463 | inactive |
| CG14891 | SID104194805 | 1.33e5 | 65184 | – | 5128 | 2784 | inactive |
| kn | SID104185297 | 7.34e5 | 1.93e5 | 1.34e5 | 5316 | 5492 | inactive |
| kn | SID104185299 | 1.61e5 | 3.62e5 | – | 4517 | 13900 | inactive |
| kn | SID104185988 | 56276 | 49219 | – | 1648 | 4298 | inactive |
| kn | SID104187429 | 65213 | 45718 | – | 1568 | 3746 | inactive |
| CG4988 | SID104182592 | 1.18e5 | 60304 | – | 2960 | 3586 | inactive |
| baz | SID104200101 | 64420 | 2.36e5 | – | 1901 | 8561 | inactive |
| CG2211 | SID104188351 | 80288 | 40908 | – | 2464 | 3040 | inactive |
| CG3652 | SID104180416 | 1.69e5 | 71056 | – | 4225 | 7673 | inactive |
| CG14258 | SID104194545 | 83536 | 1.01e5 | – | 2563 | 3338 | inactive |
| CG14965 | SID104188216 | 1.21e5 | 75757 | – | 5456 | 3168 | inactive |
| CG5550 | SID104186735 | 63890 | 39386 | – | 1015 | 2633 | inactive |
| Nrd1 | SID104199622 | 1.14e5 | 70929 | – | 2795 | 1750 | inactive |
| Lmx1a | SID104189518 | 47146 | 34112 | 41856 | 3840 | 2929 | inactive |
| Lmx1a | SID104190067 | 45955 | 32516 | 15306 | 2733 | 1130 | inactive |
| CG6005 | SID104195737 | 1.07e5 | 55125 | – | 4432 | 2316 | inactive |
| Vha14-1 | SID104187363 | 98100 | 39971 | – | 2541 | 1926 | inactive |
| CG1774 | SID104195050 | 1.22e5 | 63456 | – | 3037 | 2539 | inactive |
| CG34171 | SID104181429 | 96598 | 1.72e5 | – | 1659 | 8834 | inactive |
| CG8249 | SID104186917 | 54501 | 57048 | – | 631 | 3505 | inactive |
| fz3 | SID104198571 | 76336 | 1.77e5 | – | 2813 | 6768 | inactive |
| Nepl4 | SID104183031 | 86090 | 73398 | – | 2796 | 2715 | inactive |
| Osi20 | SID104192360 | 83275 | 1.68e5 | – | 2629 | 4112 | inactive |
| Gr64b + Gr64c | SID104188236 | 74411 | 60040 | – | 2305 | 5251 | inactive |
| Gr64b + Gr64c | SID104188237 | 89866 | 60537 | – | 3211 | 4806 | inactive |
| igl | SID104187423 | 1.37e5 | 1.34e5 | – | 4742 | 5340 | inactive |
| cmb | SID104189582 | 55472 | 34744 | 60848 | 2992 | 4426 | inactive |
| CG12253 | SID104181945 | 49101 | 41468 | – | 2275 | 1728 | inactive |
| gish | SID104195946 | 1.15e5 | 81457 | – | 4484 | 3175 | inactive |
| vanin-like | SID104197232 | 5.15e5 | 1.95e5 | – | 28704 | 3804 | inactive |
| Vinc | SID104198520 | 1.58e5 | 75421 | – | 3120 | 2919 | inactive |
| rumpel | SID104198228 | 70290 | 1.72e5 | – | 2240 | 6071 | inactive |
| Prx4 | SID104188460 | 83252 | 49345 | – | 2016 | 3548 | inactive |
| Gr21a | SID104180158 | 1.05e5 | 79896 | – | 2688 | 1984 | inactive |
| schuy | SID104190076 | 85260 | 1.06e5 | – | 3027 | 2923 | inactive |
| CG11841 | SID104194191 | 82960 | 1.22e5 | – | 1716 | 3323 | inactive |
| sr | SID104193076 | 57060 | 1.70e5 | – | 12347 | 4518 | inactive |
| sr | SID104196859 | 3.82e5 | 30266 | – | 21748 | 982 | inactive |
| Tpst | SID104198781 | 5.96e5 | 2.09e5 | – | 32201 | 5425 | inactive |
| Tpst | SID104199488 | 1.17e5 | 3.02e5 | – | 1232 | 12349 | inactive |
| Tpst | SID104199515 | 1.83e5 | 64077 | – | 10448 | 1648 | inactive |
| Tpst | SID104199516 | 1.16e5 | 1.43e5 | – | 3658 | 5840 | inactive |
| Tim17b1 | SID104191971 | 66176 | 1.67e5 | – | 2477 | 5080 | inactive |
| NijB | SID104189642 | 6.96e5 | 1.18e5 | – | 4241 | 4241 | inactive |
| UQCR-C1 | SID104195300 | 1.02e5 | 93364 | – | 4951 | 3525 | inactive |
| Chi | SID104184394 | 1.06e5 | 72480 | – | 4184 | 3180 | inactive |
| OXA1L | SID104189464 | 76264 | 56453 | – | 3824 | 2352 | inactive |
| CG17994 | SID104184669 | 1.14e5 | 65533 | – | 3205 | 6624 | inactive |
| bic | SID104187376 | 90248 | 59953 | – | 4962 | 3496 | inactive |

Records listed so far whose target name begins with V or v (3):
| gene | PubChem SID | firefly Hh reporter signal, replicate 1 | firefly Hh reporter signal, replicate 2 | firefly Hh reporter signal, replicate 3 | Renilla reference signal, replicate 1 | Renilla reference signal, replicate 2 | Call |
| --- | --- | --- | --- | --- | --- | --- | --- |
| Vha14-1 | SID104187363 | 98100 | 39971 | – | 2541 | 1926 | inactive |
| vanin-like | SID104197232 | 5.15e5 | 1.95e5 | – | 28704 | 3804 | inactive |
| Vinc | SID104198520 | 1.58e5 | 75421 | – | 3120 | 2919 | inactive |
